In patent US6730780B2, “Water-based ink” (Kao Corporation, priority 2000, dated 2004):

Test: Color tone of printed matter
Conditions: ink containing the dye, printed on PB paper

Row | Molecule | Color Tone L* | Color Tone a* | Color Tone b*
1 | C.I. Acid Yellow 17 [Dye c] | 88 | −15 | 74
2 | C.I. Acid Yellow 23 [Dye b] | 86 | −0.4 | 89
3 | CCCCN(CCCC)S(=O)(=O)c1cccc(N=Nc2ccc(NC(=O)Nc3ccc(N=Nc4cccc(S(=O)(=O)N(CCCC)CCCC)c4)cc3OC)c(OC)c2)c1 [Oil-Soluble Dye ID] | 85 | −3 | 65
4 | C.I. Solvent Red 49 [Dye l] | 50 | 65 | −22
5 | C.I. Direct Yellow 86 [Dye d] | 89 | 5 | 76
6 | CCCCCCN(CCCCCC)S(=O)(=O)c1ccc(N=NC2C(=O)N(c3cc(Cl)c(S(=O)(=O)N(CCCCCC)CCCCCC)cc3Cl)N=C2C)cc1 (stereo not drawn) [Oil-Soluble Dye IC] | 85 | −19 | 70
7 | C.I. Direct Yellow 132 [Dye e] | 87 | −4 | 73
8 | C.I. Acid Red 289 [Dye a] | 59 | 69 | −11
9 | CCCCN(CCCC)C(=O)C1=NN(c2ccc(S(=O)(=O)N(CCCC)CCCC)cc2)C(=O)C1N=Nc1ccc(S(=O)(=O)N(CCCC)CCCC)cc1 (stereo not drawn) [Oil-Soluble Dye IB] | 84 | −4 | 84
